Measurements published in PMC11729909.
No constants are given. Whether binding was seen depends on the method and setting. Binding seen in cells or lysates may run through a third protein. Some results given as binding are weak or reduced against the parent protein; the word gives no strength. Where a sequence is shown, tags or fusion partners need not be part of it.

Tests used:
Test in all cases: co-IP; HEK293T transfected with the indicated plasmids, lysed in NETN buffer, Anti-FLAG Affinity Gel 4 h at 4 °C, immunoblot; in some panels 2 mM HU, Thiamet-G, OGT siRNA, ATR inhibitors (VE-822, NU6027) or CHK1 inhibitors (Rabusertib, UCN-01)
[1] = molecular target: T1, FLAG-tagged FOXP1 (wild type, full length) (human) (UniProt Q9H334)
T1 sequence: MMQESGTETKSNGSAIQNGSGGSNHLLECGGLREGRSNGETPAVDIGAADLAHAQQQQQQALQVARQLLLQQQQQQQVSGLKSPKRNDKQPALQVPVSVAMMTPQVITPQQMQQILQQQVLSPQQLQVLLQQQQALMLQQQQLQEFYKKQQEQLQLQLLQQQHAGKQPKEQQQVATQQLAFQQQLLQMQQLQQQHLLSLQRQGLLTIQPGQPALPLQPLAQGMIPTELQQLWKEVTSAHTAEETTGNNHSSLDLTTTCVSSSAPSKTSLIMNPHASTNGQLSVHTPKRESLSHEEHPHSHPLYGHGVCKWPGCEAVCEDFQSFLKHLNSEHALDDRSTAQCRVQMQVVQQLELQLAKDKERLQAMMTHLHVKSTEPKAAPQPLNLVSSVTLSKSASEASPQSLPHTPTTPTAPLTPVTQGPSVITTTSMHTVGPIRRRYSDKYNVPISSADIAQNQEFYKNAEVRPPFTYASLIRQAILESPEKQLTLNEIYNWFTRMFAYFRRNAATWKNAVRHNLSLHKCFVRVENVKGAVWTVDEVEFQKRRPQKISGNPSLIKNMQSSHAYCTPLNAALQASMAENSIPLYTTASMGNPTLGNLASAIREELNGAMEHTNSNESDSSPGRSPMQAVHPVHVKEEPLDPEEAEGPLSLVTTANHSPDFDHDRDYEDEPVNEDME

[2] = molecular target: T2, FLAG-tagged FOXP1 S396D (human) (UniProt Q9H334)
T2 sequence: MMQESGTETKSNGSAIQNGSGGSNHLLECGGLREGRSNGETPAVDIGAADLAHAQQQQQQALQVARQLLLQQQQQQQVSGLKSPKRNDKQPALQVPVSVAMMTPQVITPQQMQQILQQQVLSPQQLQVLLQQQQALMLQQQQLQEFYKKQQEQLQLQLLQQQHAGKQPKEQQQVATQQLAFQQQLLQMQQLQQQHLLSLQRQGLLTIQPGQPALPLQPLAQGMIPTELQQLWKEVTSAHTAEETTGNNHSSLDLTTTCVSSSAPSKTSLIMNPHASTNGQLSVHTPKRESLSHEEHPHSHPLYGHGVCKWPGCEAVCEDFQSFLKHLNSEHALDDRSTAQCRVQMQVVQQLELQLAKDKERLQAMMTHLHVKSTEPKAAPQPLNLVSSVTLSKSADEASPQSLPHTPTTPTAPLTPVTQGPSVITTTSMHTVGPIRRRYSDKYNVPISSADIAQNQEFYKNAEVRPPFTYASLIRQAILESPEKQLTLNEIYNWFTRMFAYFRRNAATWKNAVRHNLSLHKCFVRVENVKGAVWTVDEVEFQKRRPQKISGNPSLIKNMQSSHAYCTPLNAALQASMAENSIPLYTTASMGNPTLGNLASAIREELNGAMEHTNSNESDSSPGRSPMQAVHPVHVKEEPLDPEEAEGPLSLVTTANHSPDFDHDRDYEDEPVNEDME

[3] = molecular target: T3, FLAG-tagged FOXP1 Δ465–555 (human) (UniProt Q9H334)
T3 sequence: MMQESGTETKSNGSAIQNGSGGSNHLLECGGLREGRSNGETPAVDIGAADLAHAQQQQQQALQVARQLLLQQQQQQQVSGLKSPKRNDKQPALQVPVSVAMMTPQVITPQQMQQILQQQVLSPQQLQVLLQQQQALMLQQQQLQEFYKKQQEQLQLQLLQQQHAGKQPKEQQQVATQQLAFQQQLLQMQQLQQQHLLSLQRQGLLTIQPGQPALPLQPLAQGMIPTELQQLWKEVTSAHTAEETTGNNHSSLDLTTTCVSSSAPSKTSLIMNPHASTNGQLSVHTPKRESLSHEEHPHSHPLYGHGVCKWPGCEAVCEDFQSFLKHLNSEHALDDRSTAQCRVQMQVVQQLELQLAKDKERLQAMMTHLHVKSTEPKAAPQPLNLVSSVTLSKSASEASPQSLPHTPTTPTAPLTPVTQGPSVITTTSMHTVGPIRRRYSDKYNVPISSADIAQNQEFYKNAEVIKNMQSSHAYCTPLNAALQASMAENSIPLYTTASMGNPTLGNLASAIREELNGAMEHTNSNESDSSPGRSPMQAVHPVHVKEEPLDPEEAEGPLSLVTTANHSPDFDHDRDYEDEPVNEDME

Measured: binding

B1: GFP-tagged OGT (enzyme, UniProt O15294 1-1046)
chain: MASSVGNVADSTEPTKRMLSFQGLAELAHREYQAGDFEAAERHCMQLWRQEPDNTGVLLLLSSIHFQCRRLDRSAHFSTLAIKQNPLLAEAYSNLGNVYKERGQLQEAIEHYRHALRLKPDFIDGYINLAAALVAAGDMEGAVQAYVSALQYNPDLYCVRSDLGNLLKALGRLEEAKACYLKAIETQPNFAVAWSNLGCVFNAQGEIWLAIHHFEKAVTLDPNFLDAYINLGNVLKEARIFDRAVAAYLRALSLSPNHAVVHGNLACVYYEQGLIDLAIDTYRRAIELQPHFPDAYCNLANALKEKGSVAEAEDCYNTALRLCPTHADSLNNLANIKREQGNIEEAVRLYRKALEVFPEFAAAHSNLASVLQQQGKLQEALMHYKEAIRISPTFADAYSNMGNTLKEMQDVQGALQCYTRAIQINPAFADAHSNLASIHKDSGNIPEAIASYRTALKLKPDFPDAYCNLAHCLQIVCDWTDYDERMKKLVSIVADQLEKNRLPSVHPHHSMLYPLSHGFRKAIAERHGNLCLDKINVLHKPPYEHPKDLKLSDGRLRVGYVSSDFGNHPTSHLMQSIPGMHNPDKFEVFCYALSPDDGTNFRVKVMAEANHFIDLSQIPCNGKAADRIHQDGIHILVNMNGYTKGARNELFALRPAPIQAMWLGYPGTSGALFMDYIITDQETSPAEVAEQYSEKLAYMPHTFFIGDHANMFPHLKKKAVIDFKSNGHIYDNRIVLNGIDLKAFLDSLPDVKIVKMKCPDGGDNADSSNTALNMPVIPMNTIAEAVIEMINRGQIQITINGFSISNGLATTQINNKAATGEEVPRTIIVTTRSQYGLPEDAIVYCNFNQLYKIDPSTLQMWANILKRVPNSVLWLLRFPAVGEPNIQQYAQNMGLPQNRIIFSPVAPKEEHVRRGQLADVCLDTPLCNGHTTGMDVLWAGTPMVTMPGETLASRVAASQLTCLGCLELIAKNRQEYEDIAVKLGTDLEYLKKVRGKVWKQRISSPLFNTKQYTMELERLYLQMWEHYAAGNKPDHMIKPVEVTESA
binds: all assays above
